From PMC8938434, “Atomic resolution dynamics of cohesive interactions in phase-separated Nup98 FG domains” (Nature Communications, 2022) come the findings set out here.

For the assay, the target named is T1, prf.GLFG_(52 × 12).
T1 construct: engineered from the Tetrahymena thermophila MacNup98A FG domain; plasmid pSNG064; Isotope-labelled (15N, 13C) for NMR; also called perfect repeat; source: E. coli, inclusion bodies, Ni(II) chelate column, tag cut off with bdSENP1 protease, lyophilized; not shown: His14-ZZ-scSUMO, N-terminal, cleaved
T1 chain: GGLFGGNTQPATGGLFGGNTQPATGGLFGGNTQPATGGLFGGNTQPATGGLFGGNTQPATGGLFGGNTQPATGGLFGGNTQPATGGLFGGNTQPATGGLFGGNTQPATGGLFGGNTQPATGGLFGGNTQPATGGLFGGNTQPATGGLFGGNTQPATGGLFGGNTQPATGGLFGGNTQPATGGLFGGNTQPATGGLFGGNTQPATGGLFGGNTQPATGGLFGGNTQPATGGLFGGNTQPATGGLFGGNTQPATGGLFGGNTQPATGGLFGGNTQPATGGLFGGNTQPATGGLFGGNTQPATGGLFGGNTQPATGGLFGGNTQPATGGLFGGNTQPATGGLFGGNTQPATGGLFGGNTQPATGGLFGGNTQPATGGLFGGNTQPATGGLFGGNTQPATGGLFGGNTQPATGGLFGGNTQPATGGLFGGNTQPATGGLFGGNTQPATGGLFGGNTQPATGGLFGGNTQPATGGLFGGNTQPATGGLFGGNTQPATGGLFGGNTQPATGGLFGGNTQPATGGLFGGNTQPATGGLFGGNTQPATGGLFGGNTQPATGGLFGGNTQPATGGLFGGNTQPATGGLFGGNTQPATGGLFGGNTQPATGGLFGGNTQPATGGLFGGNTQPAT
Description: condition: only below the transition temperature (Tp) ~16 °C; dynamic light scattering; dilution of prf.GLFG_(52 × 12) in NaCl solution with 20 mM NaPi pH 6.8, temperature raised 1 °C per min from 2 to 40 °C; below the transition temperature (Tp ~16 °C); both purified.

These are yes or no findings as the source states them, for the method shown.

B1: prf.GLFG_(52 × 12) (protein)
chain: T1 chain
Turning to B1, the binding entry is “no binding”.
